According to patent US20020028193A1, “Recombinant beta2-adrenergic receptor delivery and use in treating airway and vascular diseases” (priority 2000, published 2002):
A negative result means that nothing was seen under these conditions. Tags and fusion partners may be left off the protein sequences shown.

Target: T1, glucocorticoid receptor alpha (expressed from pRShGRalpha) (Homo sapiens) (UniProt P04150)
T1 sequence (looked up, limits assumed): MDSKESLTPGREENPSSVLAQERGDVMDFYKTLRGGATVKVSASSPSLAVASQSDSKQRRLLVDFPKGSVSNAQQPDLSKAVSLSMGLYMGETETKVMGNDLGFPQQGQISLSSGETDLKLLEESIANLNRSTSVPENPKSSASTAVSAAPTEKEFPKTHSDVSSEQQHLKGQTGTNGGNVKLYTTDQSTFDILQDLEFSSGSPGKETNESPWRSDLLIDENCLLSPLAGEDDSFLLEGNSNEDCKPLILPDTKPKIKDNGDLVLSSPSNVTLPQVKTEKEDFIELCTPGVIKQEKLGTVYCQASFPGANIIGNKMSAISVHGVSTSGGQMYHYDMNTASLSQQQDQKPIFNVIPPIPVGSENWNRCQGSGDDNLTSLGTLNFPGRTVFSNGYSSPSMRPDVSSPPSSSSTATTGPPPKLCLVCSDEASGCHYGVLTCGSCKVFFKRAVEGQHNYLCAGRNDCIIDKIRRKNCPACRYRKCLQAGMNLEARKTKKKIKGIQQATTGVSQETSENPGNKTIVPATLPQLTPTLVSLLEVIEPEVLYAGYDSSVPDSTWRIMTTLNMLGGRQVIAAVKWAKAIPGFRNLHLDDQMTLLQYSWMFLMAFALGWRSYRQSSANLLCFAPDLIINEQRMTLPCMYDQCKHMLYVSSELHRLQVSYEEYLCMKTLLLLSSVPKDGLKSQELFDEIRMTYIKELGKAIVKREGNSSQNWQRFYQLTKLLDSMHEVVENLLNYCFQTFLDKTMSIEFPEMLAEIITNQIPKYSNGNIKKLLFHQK
Test: activity in cells
Settings: mutation within pbeta2ARm1(-3129/+126); glucocorticoid inducibility lost in HepG2; protein in cells; only the site is given

Sequence: GGGTGAGCTATTCT (double strand) [m1GRE5 (core printed only)]
- activity on this sequence: not active
